Reference: patent US20210214435A1
Results are given in words; binding and its absence hold for the method and conditions named. Some results given as binding are weak or reduced against the parent protein; the word gives no strength.

Key:
[1] = biological target: human GPVI-1A extracellular domain fused at its C-terminus to human IgG1 Fc (GPVI-Fc) (human); experiment: Solution equilibrium titration (SET)
[2] = biological target: mouse GPVI extracellular domain fused at its C-terminus to human IgG1 Fc (GPVI-Fc) (mouse; human); experiment: Solution equilibrium titration (SET)
[3] = biological target: human GPVI-1B extracellular domain fused at its C-terminus to human IgG1 Fc (GPVI-Fc) (human); experiment: ELISA, coated GPVI-Fc
[4] = biological target: human GPVI-1A extracellular domain fused at its C-terminus to human IgG1 Fc (GPVI-Fc) (human); experiment: ELISA, coated GPVI-Fc
[5] = biological target: mouse GPVI extracellular domain fused at its C-terminus to human IgG1 Fc (GPVI-Fc) (mouse; human); experiment: ELISA, coated GPVI-Fc
[6] = biological target: human GPVI-1B extracellular domain fused at its C-terminus to human IgG1 Fc (GPVI-Fc) (human); experiment: ELISA, coated GPVI-Fc, Fab titrated
[7] = biological target: human GPVI-1A extracellular domain fused at its C-terminus to human IgG1 Fc (GPVI-Fc) (human); experiment: ELISA, coated GPVI-Fc, Fab titrated
[8] = biological target: mouse GPVI extracellular domain fused at its C-terminus to human IgG1 Fc (GPVI-Fc) (mouse; human); experiment: ELISA, coated GPVI-Fc, Fab titrated

Measured: binding

B1: Fab #2 comprising a modified heavy chain constant region (Fab, V domains shown)
VH: QVQLVESGGGLVKPGGSLRLSCAASGFSFSDHYMSWIRQAPGKGLEWVSSVGSEGKFIDYAASVKGRFTISRDNAKNSLYLQMNSLRAEDTAVYYCARHYREFRWHYYYFDYWGQGTLVTVSS
VL: QSVLTQPPSVSGAPGQRVTISCTGSSSNIGAGYDVHWYQQLPGTAPKLLIYGNSNRPSGVPDRFSGSKSGTSASLAITGLQAEDEADYYCQSHDLGAHVWVFGGGTKLTVLG
binds: all assays above

B2: Fab #3 comprising a modified heavy chain constant region (Fab, V domains shown)
VH: QVQLVESGGGLVKPGGSLRLSCAASGFSFGDYYVSWIRQAPGKGLEWVSAIGGSGSAVQYAESVKGRFTISRDNAKNSLYLQMNSLRAEDTAVYYCARHYREFRWHYYYFDYWGQGTLVTVSS
VL: QSVLTQPPSVSGAPGQRVTISCTGSSSNIGAGYDVHWYQQLPGTAPKLLIYGNSNRPSGVPDRFSGSKSGTSASLAITGLQAEDEADYYCQSHDLGAHVWVFGGGTKLTVLG
binds: all assays above

B3: Fab #4 comprising a modified heavy chain constant region (Fab, V domains shown)
VH: QVQLVQSGAEVKKPGASVKVSCKASGGAFTSSYMHWVRQAPGQGLEWMGIIEPTGASTLYAQRFQGRVTMTRDTSTSTVYMELSSLRSEDTAVYYCARTGIALPLGFDLWGQGTLVTVSS
VL: QSVLTQPPSVSAAPGQKVTISCSGSSSNIGNNYVSWYQQLPGTAPKLLIYDNNKRPSGIPDRFSGSKSGTSATLGITGLQTEDEADYYCAAWSTRFRWVFGGGTKLTVLG
binds: all assays above

B4: Fab #1 comprising a modified heavy chain constant region (Fab, V domains shown)
VH: QVQLVQSGAEVKKPGASVKVSCKASGYTFTSHYMHWVRQAPGQGLEWMGLIEPSEGETEYAQRFQGRVTMTRDTSTSTVYMELSSLRSEDTAVYYCARDSSRSYPLGFDIWGQGTLVTVSS
VL: QSVLTQPPSVSAAPGQKVTISCSGSSSNIGNNYVSWYQQLPGTAPKLLIYDNNKRPSGIPDRFSGSKSGTSATLGITGLQTEDEADYYCAAWDFRSSRWVFGGGTKLTVLG
binds: all assays above
